# The other results are listed elsewhere or left out.
# What was measured:
# Experiment in all cases: glycan array binding signal (z-score within array); higher = stronger binding
# Conditions in all cases: glycan notation: IUPAC condensed, linker removed
# [1] = biological target: GlcNAc(b1-3)Gal(b1-4)GlcNAc(b1-3)Gal(b1-4)GlcNAc(b1-2)Man(a1-3)[GlcNAc(b1-3)Gal(b1-4)GlcNAc(b1-3)Gal(b1-4)GlcNAc(b1-2)Man(a1-6)]Man(b1-4)GlcNAc(b1-4)[Fuc(a1-6)]GlcNAc
# How it was run: (§1)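 Glycan array data came from 3228 arrays in the Consortium for Functional Glycomics database, and only arrays with an available protein sequence were kept. Glycan names were put into IUPAC-condensed notation, and columns mapping to the same glycan were averaged. The binding signal is a within-array Z-score, averaged across arrays of one protein sequence run at different concentrations or buffers and across linkers. A negative Z-score can be read as non-binding.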
# [2] = biological target: GlcNAc(b1-3)Gal(b1-4)GlcNAc(b1-3)Gal(b1-4)GlcNAc(b1-2)[GlcNAc(b1-3)Gal(b1-4)GlcNAc(b1-3)Gal(b1-4)GlcNAc(b1-6)]Man(a1-6)[GlcNAc(b1-3)Gal(b1-4)GlcNAc(b1-3)Gal(b1-4)GlcNAc(b1-2)Man(a1-3)]Man(b1-4)GlcNAc(b1-4)[Fuc(a1-6)]GlcNAc
# How it was run: as §1
# [3] = biological target: GlcNAc(b1-3)Gal(b1-4)GlcNAc(b1-3)Gal(b1-4)GlcNAc(b1-3)Gal(b1-4)GlcNAc(b1-2)Man(a1-3)[GlcNAc(b1-3)Gal(b1-4)GlcNAc(b1-3)Gal(b1-4)GlcNAc(b1-3)Gal(b1-4)GlcNAc(b1-2)Man(a1-6)]Man(b1-4)GlcNAc(b1-4)GlcNAc
# How it was run: as §1
# [4] = biological target: GlcNAc(b1-3)Gal(b1-4)GlcNAc(b1-3)Gal(b1-4)GlcNAc(b1-3)Gal(b1-4)GlcNAc(b1-2)Man(a1-3)[GlcNAc(b1-3)Gal(b1-4)GlcNAc(b1-3)Gal(b1-4)GlcNAc(b1-3)Gal(b1-4)GlcNAc(b1-2)Man(a1-6)]Man(b1-4)GlcNAc(b1-4)[Fuc(a1-6)]GlcNAc
# How it was run: as §1
# [5] = biological target: GlcNAc(b1-3)Gal(b1-4)GlcNAc(b1-3)Gal(b1-4)GlcNAc(b1-3)Gal(b1-4)GlcNAc(b1-2)[GlcNAc(b1-3)Gal(b1-4)GlcNAc(b1-3)Gal(b1-4)GlcNAc(b1-3)Gal(b1-4)GlcNAc(b1-6)]Man(a1-6)[GlcNAc(b1-3)Gal(b1-4)GlcNAc(b1-3)Gal(b1-4)GlcNAc(b1-3)Gal(b1-4)GlcNAc(b1-2)Man(a1-3)]Man(b1-4)GlcNAc(b1-4)[Fuc(a1-6)]GlcNAc
# How it was run: as §1
# [6] = biological target: GlcNAc(b1-3)Gal(b1-4)GlcNAc(b1-3)Gal(b1-4)GlcNAc(b1-3)Gal(b1-4)GlcNAc(b1-3)Gal(b1-4)GlcNAc(b1-2)Man(a1-3)[GlcNAc(b1-3)Gal(b1-4)GlcNAc(b1-3)Gal(b1-4)GlcNAc(b1-3)Gal(b1-4)GlcNAc(b1-3)Gal(b1-4)GlcNAc(b1-2)Man(a1-6)]Man(b1-4)GlcNAc(b1-4)GlcNAc
# How it was run: as §1
# [7] = biological target: GlcNAc(b1-3)Gal(b1-4)GlcNAc(b1-3)Gal(b1-4)GlcNAc(b1-3)Gal(b1-4)GlcNAc(b1-3)Gal(b1-4)GlcNAc(b1-2)Man(a1-3)[GlcNAc(b1-3)Gal(b1-4)GlcNAc(b1-3)Gal(b1-4)GlcNAc(b1-3)Gal(b1-4)GlcNAc(b1-3)Gal(b1-4)GlcNAc(b1-2)Man(a1-6)]Man(b1-4)GlcNAc(b1-4)[Fuc(a1-6)]GlcNAc
# How it was run: as §1
# [8] = biological target: GlcNAc(b1-3)Gal(b1-4)GlcNAc(b1-3)Gal(b1-4)GlcNAc(b1-3)Gal(b1-4)GlcNAc(b1-3)Gal(b1-4)GlcNAc(b1-2)[GlcNAc(b1-3)Gal(b1-4)GlcNAc(b1-3)Gal(b1-4)GlcNAc(b1-3)Gal(b1-4)GlcNAc(b1-3)Gal(b1-4)GlcNAc(b1-6)]Man(a1-6)[GlcNAc(b1-3)Gal(b1-4)GlcNAc(b1-3)Gal(b1-4)GlcNAc(b1-3)Gal(b1-4)GlcNAc(b1-3)Gal(b1-4)GlcNAc(b1-2)Man(a1-3)]Man(b1-4)GlcNAc(b1-4)[Fuc(a1-6)]GlcNAc
# How it was run: as §1
# [9] = biological target: GlcNAc(b1-3)Gal(b1-4)GlcNAc(b1-3)Gal(b1-4)GlcNAc(b1-3)GalNAc
# How it was run: as §1
# [10] = biological target: GlcNAc(b1-3)Gal(b1-4)GlcNAc(b1-3)GalNAc
# How it was run: as §1
# [11] = biological target: GlcNAc(b1-3)Gal(b1-4)GlcNAc(b1-3)[GlcNAc(b1-3)Gal(b1-4)GlcNAc(b1-3)]GalNAc
# How it was run: as §1
# [12] = biological target: GlcNAc(b1-3)Gal(b1-4)GlcNAc(b1-6)[Gal(b1-3)]GalNAc
# How it was run: as §1
# [13] = biological target: GlcNAc(b1-3)Gal(b1-4)GlcNAc(b1-6)[GlcNAc(b1-3)Gal(b1-3)]GalNAc
# How it was run: as §1
# [14] = biological target: GlcNAc(b1-3)Gal(b1-4)GlcNAc(b1-6)[GlcNAc(b1-3)]Gal(b1-4)GlcNAc
# How it was run: as §1
# GlcNAc(b1-3)GalNAc = biological target: GlcNAc(b1-3)GalNAc
# How it was run: as §1
# GlcNAc(b1-3)Man = biological target: GlcNAc(b1-3)Man
# How it was run: as §1
# [15] = biological target: GlcNAc(b1-3)[GlcNAc(b1-4)][GlcNAc(b1-6)]GlcNAc
# How it was run: as §1
# [16] = biological target: GlcNAc(b1-3)[GlcNAc(b1-6)]Gal(b1-4)GlcNAc
# How it was run: as §1
# [17] = biological target: GlcNAc(b1-3)[GlcNAc(b1-6)]GalNAc
# How it was run: as §1
# [18] = biological target: GlcNAc(b1-4)Gal(b1-4)GlcNAc
# How it was run: as §1
# GlcNAc(b1-4)GlcNAc = biological target: GlcNAc(b1-4)GlcNAc
# How it was run: as §1
# [19] = biological target: GlcNAc(b1-4)GlcNAc(b1-4)GlcNAc
# How it was run: as §1
# [20] = biological target: GlcNAc(b1-4)GlcNAc(b1-4)GlcNAc(b1-4)GlcNAc(b1-4)GlcNAc
# How it was run: as §1
# [21] = biological target: GlcNAc(b1-4)GlcNAc(b1-4)GlcNAc(b1-4)GlcNAc(b1-4)GlcNAc(b1-4)GlcNAc
# How it was run: as §1
# [22] = biological target: GlcNAc(b1-4)[GlcNAc(b1-6)]GalNAc
# How it was run: as §1
# [23] = biological target: GlcNAc(b1-6)Gal(b1-4)GlcNAc
# How it was run: as §1
# GlcNAc(b1-6)GalNAc = biological target: GlcNAc(b1-6)GalNAc
# How it was run: as §1
# [24] = biological target: GlcNAc6S(b1-3)Gal(b1-4)GlcNAc
# How it was run: as §1
# Kdn(a2-3)Gal(b1-3)GalNAc = biological target: Kdn(a2-3)Gal(b1-3)GalNAc
# How it was run: as §1
# Kdn(a2-3)Gal(b1-3)GlcNAc = biological target: Kdn(a2-3)Gal(b1-3)GlcNAc
# How it was run: as §1
# Kdn(a2-3)Gal(b1-4)Glc = biological target: Kdn(a2-3)Gal(b1-4)Glc
# How it was run: as §1
# Kdn(a2-3)Gal(b1-4)GlcNAc = biological target: Kdn(a2-3)Gal(b1-4)GlcNAc
# How it was run: as §1
# [25] = biological target: Kdn(a2-3)Gal(b1-4)[Fuc(a1-3)]GlcNAc
# How it was run: as §1
# Kdn(a2-6)Gal(b1-4)GlcNAc = biological target: Kdn(a2-6)Gal(b1-4)GlcNAc
# How it was run: as §1
# [26] = biological target: Man(a1-2)Man(a1-2)Man(a1-3)Man
# How it was run: as §1
# [27] = biological target: Man(a1-2)Man(a1-2)Man(a1-6)[Man(a1-3)]Man
# How it was run: as §1
# Man(a1-2)Man(a1-3)Man = biological target: Man(a1-2)Man(a1-3)Man
# How it was run: as §1
# [28] = biological target: Man(a1-2)Man(a1-3)[Man(a1-2)Man(a1-6)]Man
# How it was run: as §1
binder,measurement,setting,value
"Clec18Av1 (Homo sapiens), A5D8T8 (protein) MLHPETSPGRGHLLAVLLALLGTAWAEVWPPQLQEQAPMAGALNRKESFLLLSLHNRLRSWVQPPAADMRRLDWSDSLAQLAQARAALCGTPTPSLASGLWRTLQVGWNMQLLPAGLVSFVEVVSLWFAEGQRYSHAAGECARNATCTHYTQLVWATSSQLGCGRHLCSAGQAAIEAFVCAYSPRGNWEVNGKTIVPYKKGAWCSLCTASVSGCFKAWDHAGGLCEVPRNPCRMSCQNHGRLNISTCHCHCPPGYTGRYCQVRCSLQCVHGRFREEECSCVCDIGYGGAQCATKVHFPFHTCDLRIDGDCFMVSSEADTYYRARMKCQRKGGVLAQIKSQKVQDILAFYLGRLETTNEVIDSDFETRNFWIGLTYKTAKDSFRWATGEHQAFTSFAFGQPDNHGFGNCVELQASAAFNWNDQRCKTRNRYICQFAQEHISRWGPGS",glycan array binding signal (z-score),[1],-0.74
same,glycan array binding signal (z-score),[2],-0.075
same,glycan array binding signal (z-score),[3],1.23
same,glycan array binding signal (z-score),[4],1.17
same,glycan array binding signal (z-score),[5],-0.715
same,glycan array binding signal (z-score),[6],-0.769
same,glycan array binding signal (z-score),[7],-0.077
same,glycan array binding signal (z-score),[8],2.69
same,glycan array binding signal (z-score),[9],-0.551
same,glycan array binding signal (z-score),[10],-0.797
same,glycan array binding signal (z-score),[11],0.596
same,glycan array binding signal (z-score),[12],-0.033
same,glycan array binding signal (z-score),[13],-0.805
same,glycan array binding signal (z-score),[14],-0.865
same,glycan array binding signal (z-score),GlcNAc(b1-3)GalNAc,-0.475
same,glycan array binding signal (z-score),GlcNAc(b1-3)Man,-0.013
same,glycan array binding signal (z-score),[15],-0.811
same,glycan array binding signal (z-score),[16],-0.503
same,glycan array binding signal (z-score),[17],-0.808
same,glycan array binding signal (z-score),[18],-0.845
same,glycan array binding signal (z-score),GlcNAc(b1-4)GlcNAc,-0.326
same,glycan array binding signal (z-score),[19],-0.82
same,glycan array binding signal (z-score),[20],-0.866
same,glycan array binding signal (z-score),[21],-0.556
same,glycan array binding signal (z-score),[22],-0.241
same,glycan array binding signal (z-score),[23],1.6
same,glycan array binding signal (z-score),GlcNAc(b1-6)GalNAc,-0.158
same,glycan array binding signal (z-score),[24],1.53
same,glycan array binding signal (z-score),Kdn(a2-3)Gal(b1-3)GalNAc,-0.238
same,glycan array binding signal (z-score),Kdn(a2-3)Gal(b1-3)GlcNAc,-0.701
same,glycan array binding signal (z-score),Kdn(a2-3)Gal(b1-4)Glc,-0.816
same,glycan array binding signal (z-score),Kdn(a2-3)Gal(b1-4)GlcNAc,0.233
same,glycan array binding signal (z-score),[25],0.16
same,glycan array binding signal (z-score),Kdn(a2-6)Gal(b1-4)GlcNAc,2.58
same,glycan array binding signal (z-score),[26],-0.848
same,glycan array binding signal (z-score),[27],-0.856
same,glycan array binding signal (z-score),Man(a1-2)Man(a1-3)Man,-0.573
same,glycan array binding signal (z-score),[28],-0.859
